Literature values, collected in patent publication US20130059830A1, “NOVEL PROLYLCARBOXYPEPTIDASE INHIBITORS” (priority 2010, published 2013).
Some results were stated once for a whole list of compounds, not compound by compound. Some compounds share one range, which may span the group rather than tell each member.

settings: in vivo; cited from earlier work

SMILES	weight loss of body weight for drug compared to placebo
CC(C)CC(N(C)C)C1(c2ccc(Cl)cc2)CCC1 (stereo not drawn) [sibutramine]	5%-10%
CCN[C@@H](C)Cc1cccc(C(F)(F)F)c1 [dexfenfluramine]	5%-10%
CC(C)(N)Cc1ccccc1 [phentermine]	5%-10%
